Results on 5 molecules are retold here after paper PMC7337521.

Results are given in words; binding and its absence hold for the method and conditions named. In cells and extracts the contact can be indirect. A yes stands for co-enrichment or nearness to the bait. Other partners may have been found.

B1: TIA-1 (protein, UniProt P31483 1-386)
chain: MEDEMPKTLYVGNLSRDVTEALILQLFSQIGPCKNCKMIMDTAGNDPYCFVEFHEHRHAAAALAAMNGRKIMGKEVKVNWATTPSSQKKDTSSSTVVSTQRSQDHFHVFVGDLSPEITTEDIKAAFAPFGRISDARVVKDMATGKSKGYGFVSFFNKWDAENAIQQMGGQWLGGRQIRTNWATRKPPAPKSTYESNTKQLSYDEVVNQSSPSNCTVYCGGVTSGLTEQLMRQTFSPFGQIMEIRVFPDKGYSFVRFNSHESAAHAIVSVNGTTIEGHVVKCYWGKETLDMINPVQQQNQIGYPQPYGQWGQWYGNAQQIGQYMPNGWQVPAYGMYGQAWNQQGFNQTQSSAPWMGPNYGVQPPQGQNGSMLPNQPSGYRVAGYETQ
B2: G3BP2 (protein, UniProt Q9UN86 1-482)
chain: MVMEKPSPLLVGREFVRQYYTLLNKAPEYLHRFYGRNSSYVHGGVDASGKPQEAVYGQNDIHHKVLSLNFSECHTKIRHVDAHATLSDGVVVQVMGLLSNSGQPERKFMQTFVLAPEGSVPNKFYVHNDMFRYEDEVFGDSEPELDEESEDEVEEEQEERQPSPEPVQENANSGYYEAHPVTNGIEEPLEESSHEPEPEPESETKTEELKPQVEEKNLEELEEKSTTPPPAEPVSLPQEPPKAFSWASVTSKNLPPSGTVSSSGIPPHVKAPVSQPRVEAKPEVQSQPPRVREQRPRERPGFPPRGPRPGRGDMEQNDSDNRRIIRYPDSHQLFVGNLPHDIDENELKEFFMSFGNVVELRINTKGVGGKLPNFGFVVFDDSEPVQRILIAKPIMFRGEVRLNVEEKKTRAARERETRGGGDDRRDIRRNDRGPGGPRGIVGGGMMRDRDGRGPPPRGGMAQKLGSGRGTGQMEGRFTGQRR
B3: DDX1 (protein, UniProt Q92499 1-740)
chain: MAAFSEMGVMPEIAQAVEEMDWLLPTDIQAESIPLILGGGDVLMAAETGSGKTGAFSIPVIQIVYETLKDQQEGKKGKTTIKTGASVLNKWQMNPYDRGSAFAIGSDGLCCQSREVKEWHGCRATKGLMKGKHYYEVSCHDQGLCRVGWSTMQASLDLGTDKFGFGFGGTGKKSHNKQFDNYGEEFTMHDTIGCYLDIDKGHVKFSKNGKDLGLAFEIPPHMKNQALFPACVLKNAELKFNFGEEEFKFPPKDGFVALSKAPDGYIVKSQHSGNAQVTQTKFLPNAPKALIVEPSRELAEQTLNNIKQFKKYIDNPKLRELLIIGGVAARDQLSVLENGVDIVVGTPGRLDDLVSTGKLNLSQVRFLVLDEADGLLSQGYSDFINRMHNQIPQVTSDGKRLQVIVCSATLHSFDVKKLSEKIMHFPTWVDLKGEDSVPDTVHHVVVPVNPKTDRLWERLGKSHIRTDDVHAKDNTRPGANSPEMWSEAIKILKGEYAVRAIKEHKMDQAIIFCRTKIDCDNLEQYFIQQGGGPDKKGHQFSCVCLHGDRKPHERKQNLERFKKGDVRFLICTDVAARGIDIHGVPYVINVTLPDEKQNYVHRIGRVGRAERMGLAISLVATEKEKVWYHVCSSRGKGCYNTRLKEDGGCTIWYNEMQLLSEIEEHLNCTISQVEPDIKVPVDEFDGKVTYGQKRAAGGGSYKGHVDILAPTVQELAALEKEAQTSFLHLGYLPNQLFRTF
B4: BANF1 (protein, UniProt O75531 1-89)
chain: MTTSQKHRDFVAEPMGEKPVGSLAGIGEVLGKKLEERGFDKAYVVLGQFLVLKKDEDLFREWLKDTCGANAKQSRDCFGCLREWCDAFL
B5: RNH1 (protein, UniProt P13489 1-461)
chain: MSLDIQSLDIQCEELSDARWAELLPLLQQCQVVRLDDCGLTEARCKDISSALRVNPALAELNLRSNELGDVGVHCVLQGLQTPSCKIQKLSLQNCCLTGAGCGVLSSTLRTLPTLQELHLSDNLLGDAGLQLLCEGLLDPQCRLEKLQLEYCSLSAASCEPLASVLRAKPDFKELTVSNNDINEAGVRVLCQGLKDSPCQLEALKLESCGVTSDNCRDLCGIVASKASLRELALGSNKLGDVGMAELCPGLLHPSSRLRTLWIWECGITAKGCGDLCRVLRAKESLKELSLAGNELGDEGARLLCETLLEPGCQLESLWVKSCSFTAACCSHFSSVLAQNRFLLELQISNNRLEDAGVRELCQGLGQPGSVLRVLWLADCDVSDSSCSSLAATLLANHSLRELDLSNNCLGDAGILQLVESVRQPGCLLEQLVLYDIYWSEEMEDRLQALEKDKPSLRVIS

One test deals with G3BP1-APEX fusion protein (UniProt Q13283). Description: proximity labelling; G3BP1-APEX transiently expressed in PC-3 cells, vehicle or arsenite (200 uM, 2 h); biotin-tyramide 500 uM 30 min and H2O2 1 mM 1 min; biotinylated proteins pulled down with Dynabeads M-280 Streptavidin; Western blot. In general terms: A western blot detects proteins with antibodies after separation by electrophoresis.
Turning to B1, the binding result is “binds”. On the same count and under the same terms, the same measure for B2: “binds”.

A further test has the same target. Kind of test: proximity labelling; G3BP1-APEX (heavy SILAC) against CTRL-APEX (light SILAC) in PC-3 cells, vehicle or arsenite (200 uM, 2 h); biotin tagging, streptavidin pulldown, LC-MS/MS (Orbitrap); triplicates.
Consider B3, for which the binding result is “binds”. As to B4, the binding result is reported as “binds”. B2: the binding result is listed as “binds”. Same read-out and setting: the same measure for B5: “binds”.
